Publication PMC7291193
Results are given in words; binding and its absence hold for the method and conditions named. Binding seen in cells or lysates may run through a third protein. Some binding calls cover weakened binding; strength is not graded here.

The chains behind the UniProt entries cited, without tags or fusion partners.
UniProt P03101: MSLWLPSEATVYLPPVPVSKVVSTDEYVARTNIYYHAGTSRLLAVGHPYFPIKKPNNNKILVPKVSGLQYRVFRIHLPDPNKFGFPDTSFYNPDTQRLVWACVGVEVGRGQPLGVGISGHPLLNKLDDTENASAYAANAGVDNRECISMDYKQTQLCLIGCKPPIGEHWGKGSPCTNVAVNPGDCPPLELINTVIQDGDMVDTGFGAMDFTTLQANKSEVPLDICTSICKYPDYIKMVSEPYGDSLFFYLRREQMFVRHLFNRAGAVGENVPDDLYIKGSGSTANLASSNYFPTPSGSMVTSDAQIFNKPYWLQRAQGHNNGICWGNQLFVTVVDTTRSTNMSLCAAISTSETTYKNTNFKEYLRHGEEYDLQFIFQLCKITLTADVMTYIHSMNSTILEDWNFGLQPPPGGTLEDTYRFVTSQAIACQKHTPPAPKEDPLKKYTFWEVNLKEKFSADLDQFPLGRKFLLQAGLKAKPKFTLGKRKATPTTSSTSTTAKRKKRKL

Biological target: HPV L1 protein (major capsid protein L1 of HPV type 16) (human papillomavirus type 16) (UniProt P03101)
Assay: co-IP; Capturem IP & Co-IP Kit; 600 ug of sperm cell lysate of HPV16 infected subjects incubated with anti-HPV Type 16 L1 monoclonal antibody (CAMVIR-1) 20 min at room temperature, spin column, elution; immunoblot with anti-AQP8 and anti-L1

B1: Aquaporin-8 (protein, UniProt O94778 1-261)
chain: MSGEIAMCEPEFGNDKAREPSVGGRWRVSWYERFVQPCLVELLGSALFIFIGCLSVIENGTDTGLLQPALAHGLALGLVIATLGNISGGHFNPAVSLAAMLIGGLNLVMLLPYWVSQLLGGMLGAALAKAVSPEERFWNASGAAFVTVQEQGQVAGALVAEIILTTLLALAVCMGAINEKTKGPLAPFSIGFAVTVDILAGGPVSGGCMNPARAFGPAVVANHWNFHWIYWLGPLLAGLLVGLLIRCFIGDGKTRLILKAR
binding: binds
